# Experimental data taken from US20100063032A1, “SUBSTITUTED PYRIDO[2,3-D]PYRIMIDINE DERIVATIVES AS CANNABINOID-1 RECEPTOR MODULATORS” (priority 2007, published 2010).
# Chains of the proteins cited; added tags and fusions are not shown.
# UniProt P21554, whole entry: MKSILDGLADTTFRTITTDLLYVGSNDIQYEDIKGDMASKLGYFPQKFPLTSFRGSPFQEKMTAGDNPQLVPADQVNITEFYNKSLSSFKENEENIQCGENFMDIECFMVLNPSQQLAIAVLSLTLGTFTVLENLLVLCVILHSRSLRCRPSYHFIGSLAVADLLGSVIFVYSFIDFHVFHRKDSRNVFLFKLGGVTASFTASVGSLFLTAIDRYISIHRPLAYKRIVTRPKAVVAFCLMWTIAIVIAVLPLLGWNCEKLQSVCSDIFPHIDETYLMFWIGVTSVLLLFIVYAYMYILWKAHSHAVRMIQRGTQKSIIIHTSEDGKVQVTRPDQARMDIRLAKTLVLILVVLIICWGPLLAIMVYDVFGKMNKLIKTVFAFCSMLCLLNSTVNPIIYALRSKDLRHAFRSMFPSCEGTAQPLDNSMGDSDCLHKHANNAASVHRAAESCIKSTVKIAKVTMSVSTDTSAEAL
# Some results were stated once for a whole list of compounds, not compound by compound.
# Target: recombinant human CB1 receptor (Homo sapiens, UniProt P21554)
# Experiment: Cannabinoid Receptor-1 (CB1) Binding Assay ([3H]CP-55940 displacement)
# Conditions: recombinant human CB1 in CHO cell membranes, 0.6 nM [3H]CP-55940
# Description: Binding affinity determination is based on recombinant human CB1 receptor expressed in Chinese Hamster Ovary (CHO) cells (Felder et al, Mol. Pharmacol. 48: 443-450, 1995). Total assay volume is 250 μl (240 μl CB1 receptor membrane solution plus 5 μl test compound solution plus 5 μl [3H]CP-55940 solution). Final concentration of [3H]CP-55940 is 0.6 nM. Binding buffer contains 50 mM Tris-HCl, pH 7.4, 2.5 mM EDTA, 5 mM MgCl28, 0.5 mg/mL fatty acid free bovine serum albumin and protease inhibitors (Cat#P8340, from Sigma). To initiate the binding reaction, 5 μl of radioligand solution is added, the mixture is incubated with gentle shaking on a shaker for 1.5 h at 30° C. The binding is terminated by using 96-well harvester and filtering through GF/C filter presoaked in 0.05% polyethylenimine. The bound radiolabel is quantitated using scintillation counter. Apparent binding affinities for various compounds are calculated from IC50 values (DeBlasi et al., Trends Pharmacol Sci 10: 227-229, 1989).
row,Structure (SMILES),IC50
1,"CC(C)(C)c1nc(N)c2cc(-c3ccc(Cl)cc3)c(-c3ccccc3Cl)nc2n1 [Example 1, 2-Tert-butyl-7-(2-chlorophenyl)-6-(4-chlorophenyl)pyrido[2,3-d]pyrimidin-4-amine]",< 1000 nM
2,"Nc1nc(-c2ccc(Cl)cc2)nc2nc(-c3ccccc3Cl)c(-c3ccc(Cl)cc3)cc12 [Example 2, 7-(2-Chlorophenyl)-2,6-bis(4-chlorophenyl)pyrido[2,3-d]pyrimidin-4-amine]",< 1000 nM
3,"CC(C)(C)c1nc(N)c2cc(-c3ccc(Cl)cc3)c(-c3ccc(Cl)cc3Cl)nc2n1 [Example 3, 2-Tert-butyl-6-(4-chlorophenyl)-7-(2,4-dichlorophenyl)pyrido[2,3-d]pyrimidin-4-amine]",< 1000 nM
4,"CC(C)c1nc(N)c2cc(-c3ccc(Cl)cc3)c(-c3ccccc3Cl)nc2n1 [Example 4, 7-(2-Chlorophenyl)-6-(4-chlorophenyl)-2-isopropylpyrido[2,3-d]pyrimidin-4-amine]",< 1000 nM
5,"Nc1nc(C2CC2)nc2nc(-c3ccc(Cl)cc3Cl)c(-c3ccc(Cl)cc3)cc12 [Example 5, 6-(4-Chlorophenyl)-2-cyclopropyl-7-(2,4-dichlorophenyl)pyrido[2,3-d]pyrimidin-4-amine]",< 1000 nM
6,"CC(C)(C)c1nc(N)c2cc(-c3ccc(Cl)cc3)c(-c3ccc(Br)cc3Cl)nc2n1 [Example 6, 7-(4-Bromo-2-chlorophenyl)-2-tert-butyl-6-(4-chlorophenyl)pyrido[2,3-d]pyrimidin-4-amine]",< 1000 nM
7,"Cc1ccccc1-c1nc2nc(C(C)(C)C)nc(N)c2cc1-c1ccc(Cl)cc1 [Example 7, 7-Tert-butyl-6-(4-chlorophenyl)-7-(2-methylphenyl)pyrido[2,3-d]pyrimidin-4-amine]",< 1000 nM
8,"CC(C)(C)c1nc(N)c2cc(-c3ccc(Cl)cc3)c(-c3ccccc3Br)nc2n1 [Example 8, 7-(2-Bromophenyl)-2-tert-butyl-6-(4-chlorophenyl)pyrido[2,3-d]pyrimidin-4-amine]",< 1000 nM
9,"CC(C)(C)c1nc(N)c2cc(-c3ccc(Cl)cc3)c(-c3ccc(Cl)cc3Br)nc2n1 [Example 9, 7-(2-Bromo-4-chlorophenyl)-2-tert-butyl-6-(4-chlorophenyl)pyrido[2,3-d]pyrimidin-4-amine]",< 1000 nM
10,"Cc1cccc(-c2nc3nc(C(C)(C)C)nc(N)c3cc2-c2ccc(Cl)cc2)c1Cl [Example 10, 2-Tert-butyl-7-(2-chloro-3-methylphenyl)-6-(4-chlorophenyl)pyrido[2,3-d]pyrimidin-4-amine]",< 1000 nM
11,"CC(C)(C)c1nc2nc(-c3ccccc3Cl)c(-c3ccc(Cl)cc3)cc2c(=O)[nH]1 [Example 11, 2-Tert-butyl-7-(2-chlorophenyl)-6-(4-chlorophenyl)pyrido[2,3-d]pyrimidin-4(3H)-one]",< 1000 nM
12,"CC(C)(C)c1nc2nc(-c3ccc(Cl)cc3Cl)c(-c3ccc(Cl)cc3)cc2c(=O)[nH]1 [Example 12, 2-Tert-butyl-6-(4-chlorophenyl)-7-(2,4-dichlorophenyl)pyrido[2,3-d]pyrimidin-4(3H)-one]",< 1000 nM
13,"CC(C)c1nc2nc(-c3ccccc3Cl)c(-c3ccc(Cl)cc3)cc2c(=O)[nH]1 [Example 14, 7-(2-Chlorophenyl)-6-(4-chlorophenyl)-2-isopropylpyrido[2,3-d]pyrimidin-4(3H)-one]",< 1000 nM
14,"O=c1[nH]c(C2CC2)nc2nc(-c3ccc(Cl)cc3Cl)c(-c3ccc(Cl)cc3)cc12 [Example 15, 6-(4-Chlorophenyl)-2-cyclopropyl-7-(2,4-dichlorophenyl)pyrido[2,3-d]pyrimidin-4(3H)-one]",< 1000 nM
15,"CC(C)(O)c1nc2nc(-c3ccccc3Cl)c(-c3ccc(Cl)cc3)cc2c(=O)[nH]1 [Example 16, 7-(2-Chlorophenyl)-6-(4-chlorophenyl)-2-(1-hydroxy-1-methylethyl)pyrido[2,3-d]pyrimidin-4(3H)-one]",< 1000 nM
16,"CC(C)(C)c1nc2nc(-c3ccc(Br)cc3Cl)c(-c3ccc(Cl)cc3)cc2c(=O)[nH]1 [Example 17, 7-(4-Bromo-2-chlorophenyl)-2-tert-butyl-6-(4-chlorophenyl)pyrido[2,3-d]pyrimidin-4(3H)-one]",< 1000 nM
